{"sequences": {"note": "Chains of the proteins cited; added tags and fusions are not shown. Residues count along the entry.", "UniProt Q9NZQ7, residues 19-239": "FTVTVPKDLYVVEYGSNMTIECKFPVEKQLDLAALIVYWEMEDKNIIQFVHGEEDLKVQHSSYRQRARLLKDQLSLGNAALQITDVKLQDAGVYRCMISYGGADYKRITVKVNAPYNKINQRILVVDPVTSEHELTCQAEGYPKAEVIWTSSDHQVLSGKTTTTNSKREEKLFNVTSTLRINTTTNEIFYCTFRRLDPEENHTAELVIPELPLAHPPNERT"}, "source": "patent US20240301068A1", "about": "(BEIJING HANMI PHARMACEUTICAL, published 2024)", "key": {"[1]": {"target": "recombinant human PD-L1 (Sino Biological Inc.) (human) (UniProt Q9NZQ7)", "assay": "ELISA, human PD-L1 coated, hybridoma supernatant"}, "[2]": {"target": "recombinant cynomolgus PD-L1 (Sino Biological Inc.) (cynomolgus) (UniProt G7PSE7)", "assay": "ELISA, antigen coated at 1 ug/mL"}}, "note": "These are yes or no findings as the source states them, for the method shown. Some results given as binding are weak or reduced against the parent protein; the word gives no strength.", "data": [{"binder": "murine anti-human PD-L1 monoclonal antibody secreted by the clone 34-35 (antibody, V domains shown, also called murine monoclonal antibodies) VH: EVQLQQSGAELVKPGASVKLSCTASGFNIEDTYIHWVMQRPEQGLEWIGRIDPANGNTKYDPKFQGKATITADTSSNTAYLQLSSLTSEDTAVYYCGRGLGAWFAYWGQGTLVTVSA VL: DIVMTQSHKVMSTSVGDRVTITCKASQDVHTAVAWIHQKPGQSPKLLIYSASNRYTGVPDRFTGSGSGTDFTFTISSVQAEDLAVYYCQQHYITPLTFGAGTTLELK", "values": [{"measurement": "binding", "setting": "[1]", "result": "binds"}]}, {"binder": "chimeric anti-human PD-L1 monoclonal antibody (antibody, human IgG1, kappa, V domains shown, expressed in ExpiCHO cells; also called Chimeric mAb; Chimeric antibody) VH: EVQLQQSGAELVKPGASVKLSCTASGFNIEDTYIHWVMQRPEQGLEWIGRIDPANGNTKYDPKFQGKATITADTSSNTAYLQLSSLTSEDTAVYYCGRGLGAWFAYWGQGTLVTVSA VL: DIVMTQSHKVMSTSVGDRVTITCKASQDVHTAVAWIHQKPGQSPKLLIYSASNRYTGVPDRFTGSGSGTDFTFTISSVQAEDLAVYYCQQHYITPLTFGAGTTLELKR", "values": [{"measurement": "binding", "setting": "[2]", "result": "binds"}]}]}
